Test results: PMC6946813
These are yes or no findings as the source states them, for the method shown. Binding seen in cells or lysates may run through a third protein. A yes stands for co-enrichment or nearness to the bait. Other partners may have been found.

Target: T1, B-cell lymphoma 9 (BCL9) (human (endogenous in RKO, Colo320, SW620, LS174T, DLD-1)) (UniProt O00512)
T1 sequence: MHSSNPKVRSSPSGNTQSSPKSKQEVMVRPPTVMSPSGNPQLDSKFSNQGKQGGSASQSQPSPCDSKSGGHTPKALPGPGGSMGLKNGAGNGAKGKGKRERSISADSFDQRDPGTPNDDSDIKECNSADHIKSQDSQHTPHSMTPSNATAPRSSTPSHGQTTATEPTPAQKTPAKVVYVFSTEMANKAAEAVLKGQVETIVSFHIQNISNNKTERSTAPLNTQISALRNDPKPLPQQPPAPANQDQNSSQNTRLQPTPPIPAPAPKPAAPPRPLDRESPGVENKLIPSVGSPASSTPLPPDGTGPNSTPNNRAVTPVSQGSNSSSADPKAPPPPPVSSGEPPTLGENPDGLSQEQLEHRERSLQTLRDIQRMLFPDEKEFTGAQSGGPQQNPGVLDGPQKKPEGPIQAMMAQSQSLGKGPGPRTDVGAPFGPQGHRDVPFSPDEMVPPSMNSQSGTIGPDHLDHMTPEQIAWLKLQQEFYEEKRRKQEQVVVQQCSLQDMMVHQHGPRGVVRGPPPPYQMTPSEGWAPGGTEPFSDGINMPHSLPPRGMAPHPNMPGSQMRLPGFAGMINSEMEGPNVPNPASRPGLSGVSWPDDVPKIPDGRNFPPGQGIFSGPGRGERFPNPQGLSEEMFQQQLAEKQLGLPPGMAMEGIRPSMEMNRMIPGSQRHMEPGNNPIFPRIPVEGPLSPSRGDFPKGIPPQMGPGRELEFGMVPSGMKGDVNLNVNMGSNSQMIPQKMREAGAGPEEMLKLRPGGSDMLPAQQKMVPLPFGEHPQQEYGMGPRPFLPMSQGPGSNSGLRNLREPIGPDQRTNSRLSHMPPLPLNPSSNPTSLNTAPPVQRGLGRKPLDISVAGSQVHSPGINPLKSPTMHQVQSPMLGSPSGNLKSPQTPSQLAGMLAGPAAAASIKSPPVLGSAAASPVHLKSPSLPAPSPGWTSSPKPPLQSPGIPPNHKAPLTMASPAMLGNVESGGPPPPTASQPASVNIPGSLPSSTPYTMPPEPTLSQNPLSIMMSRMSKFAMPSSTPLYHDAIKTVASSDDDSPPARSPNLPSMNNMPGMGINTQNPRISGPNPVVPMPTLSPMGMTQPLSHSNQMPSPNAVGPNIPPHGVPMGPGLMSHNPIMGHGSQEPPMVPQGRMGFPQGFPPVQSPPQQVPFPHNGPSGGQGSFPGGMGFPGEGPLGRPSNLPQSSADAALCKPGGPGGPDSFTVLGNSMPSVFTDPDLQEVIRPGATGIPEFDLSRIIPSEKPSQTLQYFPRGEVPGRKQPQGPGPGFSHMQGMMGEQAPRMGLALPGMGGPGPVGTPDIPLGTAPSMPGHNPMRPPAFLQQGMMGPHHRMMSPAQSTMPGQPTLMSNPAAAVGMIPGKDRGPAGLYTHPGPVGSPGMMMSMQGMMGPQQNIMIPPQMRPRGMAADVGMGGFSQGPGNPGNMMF
Assay: affinity purification with mass spectrometry; anti-BCL9 (two antibodies: ab37305 Abcam, 6109) or normal IgG precipitates from nuclear lysate of RKO and Colo320 cells; total protein MS after TCA precipitation and MS of bands cut from silver-stained gels

In the case of VCP (from UniProt P55072 1-806), the binding is reported as “binds”.
